{"source": "the supplement of paper PMC8728848", "binders": {"B1": {"name": "CcfD (Bacteroides vulgatus), A6KYX8 (protein)", "chain": "MKYKNYFKSIIYLALGAFTLGSCEDFLDRQEDEKLTFDKIWESRNTTQQYWLNAMSFLPNENGSLQGDTEPYLGASDECTIAYDRQYRWINFGTWNPSQVPYYKMDHYYKGIRECNIFLQNVYKCSDPLVTKDQLDEWYWQTRFARAYYYFLMMRDYGPVFLLGDDLLDFTASTEELYRPRNTWDQCVNYVVSEMTQCAESGVVLQQSDLPAAKWGLATVGTCHAVISRLLLYSARPLFNGNKLYSTVKNPDAPDFPELSGVKLFPELDNTKWQKAAEAAKKLIDNPCYELYRAGNDNPYEDYYGVTHETWNKELIWTDRYNGLFSWGVGTVPTGVAGTAYGAVGPTQALVDAYAMNTGWYPITGYEADGTPIVEPLSGYELASELEKSSWIYPSGGWSNKADFEIEAPNMYKDREPRFYVTVFFGGNQWLHGNSATSISFAKGGNGNKSHDYPKSGYLCNRFYDHKLNSSEGQWGNITFPVFRLGEIYLNFIEAVLECKKNGVALDPSYEALAMEKWADLRKRAGLDPITSIYGQVSTEELIQLCRKERQIELAFERHRYFDTRTWMIATQTDNGKMYGMNTSCPLDAGMKGTETPDGFWERTAFETRVFQNKHYLYPFSQRELDRNKLLTQNYGW"}}, "assay_in_all_cases": "glycan array binding signal (z-score within array); higher = stronger binding", "details_in_all_cases": "glycan notation: IUPAC condensed, linker removed", "key": {"[1]": {"biological_target": "Man(a1-2)Man(a1-3)[Man(a1-2)Man(a1-6)]Man", "method_in_brief": "(§1)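 Glycan array data were curated from 3228 arrays in the Consortium for Functional Glycomics database and kept only where the protein sequence was available. Glycan names were converted to IUPAC-condensed notation, and columns mapping to the same glycan were averaged. The binding signal is a within-array Z-score, averaged across arrays of the same protein sequence at different concentrations or buffers and across linkers. Negative Z-scores can be read as non-binding.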"}, "[2]": {"biological_target": "Man(a1-2)Man(a1-3)[Man(a1-2)Man(a1-6)]Man(a1-6)[Man(a1-2)Man(a1-2)Man(a1-3)]Man", "method_in_brief": "as §1"}, "[3]": {"biological_target": "Man(a1-2)Man(a1-3)[Man(a1-2)Man(a1-6)]Man(a1-6)[Man(a1-2)Man(a1-2)Man(a1-3)]Man(b1-4)GlcNAc(b1-4)GlcNAc", "method_in_brief": "as §1"}, "[4]": {"biological_target": "Man(a1-2)Man(a1-3)[Man(a1-6)]Man(a1-6)[Man(a1-2)Man(a1-3)]Man(b1-4)GlcNAc(b1-4)GlcNAc", "method_in_brief": "as §1"}, "[5]": {"biological_target": "Man(a1-2)Man(a1-6)[Man(a1-3)]Man(a1-6)[Man(a1-2)Man(a1-2)Man(a1-3)]Man", "method_in_brief": "as §1"}, "[6]": {"biological_target": "Man(a1-2)Man(a1-6)[Man(a1-3)]Man(a1-6)[Man(a1-2)Man(a1-2)Man(a1-3)]Man(b1-4)GlcNAc(b1-4)GlcNAc", "method_in_brief": "as §1"}, "[7]": {"biological_target": "Man(a1-3)[Man(a1-6)]Man", "method_in_brief": "as §1"}, "[8]": {"biological_target": "Man(a1-3)[Man(a1-6)]Man(a1-6)[Man(a1-2)Man(a1-3)]Man(b1-4)GlcNAc(b1-4)GlcNAc", "method_in_brief": "as §1"}, "[9]": {"biological_target": "Man(a1-3)[Man(a1-6)]Man(a1-6)[Man(a1-3)]Man", "method_in_brief": "as §1"}, "[10]": {"biological_target": "Man(a1-3)[Man(a1-6)]Man(a1-6)[Man(a1-3)]Man(b1-4)GlcNAc(b1-4)GlcNAc", "method_in_brief": "as §1"}, "[11]": {"biological_target": "Man(a1-3)[Man(a1-6)]Man(b1-4)GlcNAc(b1-4)GlcNAc", "method_in_brief": "as §1"}, "[12]": {"biological_target": "Man(a1-3)[Man(a1-6)]Man(b1-4)GlcNAc(b1-4)[Fuc(a1-6)]GlcNAc", "method_in_brief": "as §1"}, "[13]": {"biological_target": "Man(a1-6)Man", "method_in_brief": "as §1"}, "[14]": {"biological_target": "Man(b1-4)GlcNAc", "method_in_brief": "as §1"}, "[15]": {"biological_target": "MurNAc(b1-4)GlcNAc", "method_in_brief": "as §1"}, "[16]": {"biological_target": "Neu5Ac(a2-3)Gal", "method_in_brief": "as §1"}, "[17]": {"biological_target": "Neu5Ac(a2-3)Gal(b1-3)GalNAc", "method_in_brief": "as §1"}, "[18]": {"biological_target": "Neu5Ac(a2-3)Gal(b1-3)GalNAc(b1-3)Gal(a1-4)Gal(b1-4)Glc", "method_in_brief": "as §1"}, "[19]": {"biological_target": "Neu5Ac(a2-3)Gal(b1-3)GalNAc(b1-4)Gal(b1-4)Glc", "method_in_brief": "as §1"}, "[20]": {"biological_target": "Neu5Ac(a2-3)Gal(b1-3)GalNAc(b1-4)[Neu5Ac(a2-3)]Gal(b1-4)Glc", "method_in_brief": "as §1"}, "[21]": {"biological_target": "Neu5Ac(a2-3)Gal(b1-3)GalNAc(b1-4)[Neu5Ac(a2-8)Neu5Ac(a2-3)]Gal(b1-4)Glc", "method_in_brief": "as §1"}, "[22]": {"biological_target": "Neu5Ac(a2-3)Gal(b1-3)GalNAc6S", "method_in_brief": "as §1"}, "[23]": {"biological_target": "Neu5Ac(a2-3)Gal(b1-3)GlcNAc", "method_in_brief": "as §1"}, "[24]": {"biological_target": "Neu5Ac(a2-3)Gal(b1-3)GlcNAc(b1-2)Man", "method_in_brief": "as §1"}, "[25]": {"biological_target": "Neu5Ac(a2-3)Gal(b1-3)GlcNAc(b1-2)Man(a1-3)[GlcNAc(b1-4)][Neu5Ac(a2-3)Gal(b1-3)GlcNAc(b1-2)Man(a1-6)]Man(b1-4)GlcNAc(b1-4)GlcNAc", "method_in_brief": "as §1"}, "[26]": {"biological_target": "Neu5Ac(a2-3)Gal(b1-3)GlcNAc(b1-2)Man(a1-3)[Neu5Ac(a2-3)Gal(b1-3)GlcNAc(b1-2)Man(a1-6)]Man(b1-4)GlcNAc(b1-4)GlcNAc", "method_in_brief": "as §1"}, "[27]": {"biological_target": "Neu5Ac(a2-3)Gal(b1-3)GlcNAc(b1-2)[Neu5Ac(a2-3)Gal(b1-3)GlcNAc(b1-4)]Man(a1-6)[Neu5Ac(a2-3)Gal(b1-3)GlcNAc(b1-2)Man(a1-3)]Man(b1-4)GlcNAc(b1-4)GlcNAc", "method_in_brief": "as §1"}, "[28]": {"biological_target": "Neu5Ac(a2-3)Gal(b1-3)GlcNAc(b1-3)Gal(b1-3)GlcNAc", "method_in_brief": "as §1"}, "[29]": {"biological_target": "Neu5Ac(a2-3)Gal(b1-3)GlcNAc(b1-3)Gal(b1-4)GlcNAc", "method_in_brief": "as §1"}, "[30]": {"biological_target": "Neu5Ac(a2-3)Gal(b1-3)GlcNAc(b1-3)GalNAc", "method_in_brief": "as §1"}}, "note": "This is one part of the list.", "data": [{"binder": "B1", "values": [{"measurement": "glycan array binding signal (z-score)", "setting": "[1]", "result": -0.028}, {"measurement": "glycan array binding signal (z-score)", "setting": "[2]", "result": 0.333}, {"measurement": "glycan array binding signal (z-score)", "setting": "[3]", "result": -0.155}, {"measurement": "glycan array binding signal (z-score)", "setting": "[4]", "result": 1.94}, {"measurement": "glycan array binding signal (z-score)", "setting": "[5]", "result": -0.769}, {"measurement": "glycan array binding signal (z-score)", "setting": "[6]", "result": -0.744}, {"measurement": "glycan array binding signal (z-score)", "setting": "[7]", "result": 0.196}, {"measurement": "glycan array binding signal (z-score)", "setting": "[8]", "result": -0.673}, {"measurement": "glycan array binding signal (z-score)", "setting": "[9]", "result": -0.83}, {"measurement": "glycan array binding signal (z-score)", "setting": "[10]", "result": -0.419}, {"measurement": "glycan array binding signal (z-score)", "setting": "[11]", "result": -0.406}, {"measurement": "glycan array binding signal (z-score)", "setting": "[12]", "result": 0.257}, {"measurement": "glycan array binding signal (z-score)", "setting": "[13]", "result": 0.145}, {"measurement": "glycan array binding signal (z-score)", "setting": "[14]", "result": 0.973}, {"measurement": "glycan array binding signal (z-score)", "setting": "[15]", "result": 0.501}, {"measurement": "glycan array binding signal (z-score)", "setting": "[16]", "result": 0.526}, {"measurement": "glycan array binding signal (z-score)", "setting": "[17]", "result": 0.265}, {"measurement": "glycan array binding signal (z-score)", "setting": "[18]", "result": 0.465}, {"measurement": "glycan array binding signal (z-score)", "setting": "[19]", "result": -0.17}, {"measurement": "glycan array binding signal (z-score)", "setting": "[20]", "result": 2.47}, {"measurement": "glycan array binding signal (z-score)", "setting": "[21]", "result": 0.44}, {"measurement": "glycan array binding signal (z-score)", "setting": "[22]", "result": 0.237}, {"measurement": "glycan array binding signal (z-score)", "setting": "[23]", "result": -0.465}, {"measurement": "glycan array binding signal (z-score)", "setting": "[24]", "result": -0.454}, {"measurement": "glycan array binding signal (z-score)", "setting": "[25]", "result": -0.526}, {"measurement": "glycan array binding signal (z-score)", "setting": "[26]", "result": -0.18}, {"measurement": "glycan array binding signal (z-score)", "setting": "[27]", "result": 1.36}, {"measurement": "glycan array binding signal (z-score)", "setting": "[28]", "result": 2.05}, {"measurement": "glycan array binding signal (z-score)", "setting": "[29]", "result": 1.43}, {"measurement": "glycan array binding signal (z-score)", "setting": "[30]", "result": -0.536}]}]}
